Measurements from patent US20220169628A1 (University of Florida Research Foundation, Incorporated, priority 2019, published 2022).

Tested on: human platelets
Test: Human platelet viability, MTS assay
Assay type: cell-based
Details: IC50 platelets / IC50 MOLT-4
Description: FIG. 2. depicts dose response curves of ABT-263 and Compound 53 in MOLT-4 T-ALL cells & human platelets determined by MTS assay.
Cancer cells from different tissue origins including acute lymphoblastic leukemia (MOLT4 and RS4; 11), small cell lung cancer (NCI-H146 or simply H146), and multiple myeloma (EJM and H929) were incubated with increasing concentrations of Examples 1-21 or ABT-263 for 72 h. Cell viability was measured by tetrazolium-based MTS assay. 5×10^4 to 1×10^5 suspension cells or 3×10^3 to 5×10^3 adherent cells were seeded and treated in 96-well plates for 72 h. The EC50 values of individual agents were calculated with GraphPad Prism.

SMILES | Ratio Platelate/ MOLT-4
CC1(C)CCC(c2ccc(Cl)cc2)=C(CN2CCN(c3ccc(C(=O)NS(=O)(=O)c4ccc(N[C@H](CCN5CCOCC5)CSc5ccccc5)c(S(=O)(=O)C(F)(F)F)c4)cc3)CC2)C1 [ABT-263, reference compound] | 0.9
Cc1ncsc1-c1ccc([C@H](C)NC(=O)[C@@H]2C[C@@H](O)CN2C(=O)[C@@H](NC(=O)CCCCCCCCC(=O)NCC2(C)CCC(c3ccc(Cl)cc3)=C(CN3CCN(c4ccc(C(=O)NS(=O)(=O)c5ccc(N[C@H](CCN6CCOCC6)CSc6ccccc6)c(S(=O)(=O)C(F)(F)F)c5)cc4)CC3)C2)C(C)(C)C)cc1 (stereo partly drawn) [Compound 53, N^1-((4′-chloro-4-methyl-6-((4-(4-(((4-(((R)-4-morpholino-1-(phenylthio)butan-2-yl)amino)-3-((trifluoromethyl)sulfonyl)phenyl)sulfonyl)carbamoyl)phenyl)piperazin-1-yl)methyl)-2,3,4,5-tetrahydro-[1,1′-biphenyl]-4-yl)methyl)-N^10—((S)-1-((2S,4R)-4-hydroxy-2-(((S)-1-(4-(4-methylthiazol-5-yl)phenyl)ethyl)carbamoyl)pyrrolidin-1-yl)-3,3-dimethyl-1-oxobutan-2-yl)decanediamide] | 43
